Paper PMC5837993
No constants are given. Whether binding was seen depends on the method and setting. In cells and extracts the contact can be indirect. Binding can be weak; no strength is given. Where a sequence is shown, tags or fusion partners need not be part of it.

Target: T1, Flag-B4GALT5 (porcine β-1,4 galactosyltransferase V) (porcine)
T1 sequence: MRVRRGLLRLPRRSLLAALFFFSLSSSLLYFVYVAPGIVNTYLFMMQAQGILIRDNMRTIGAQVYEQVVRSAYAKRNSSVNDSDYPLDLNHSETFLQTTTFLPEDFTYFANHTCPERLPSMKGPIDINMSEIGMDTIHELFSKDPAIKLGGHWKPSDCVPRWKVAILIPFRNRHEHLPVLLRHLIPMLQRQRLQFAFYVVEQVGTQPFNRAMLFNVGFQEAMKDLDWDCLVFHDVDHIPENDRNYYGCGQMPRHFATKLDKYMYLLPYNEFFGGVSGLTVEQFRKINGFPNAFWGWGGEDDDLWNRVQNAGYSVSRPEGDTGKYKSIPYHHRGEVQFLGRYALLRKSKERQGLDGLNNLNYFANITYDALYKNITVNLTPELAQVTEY
Assay: co-IP; 3D4/21 cells co-transfected with GP5-Myc and Flag-B4GALT5; lysate precipitated with mouse anti-Flag mAb Sepharose beads (legend: anti-Flag mAb with protein A Sepharose), Western blot with anti-Myc antibody

In the case of “GP5-Myc (glycoprotein 5 of PRRSV JXwn06)”, the binding is reported as “binds”.
